Test results: PMC3410863

The chains behind the UniProt entries cited, without tags or fusion partners. Residues count along the entry.
UniProt P41148, residues 22-804: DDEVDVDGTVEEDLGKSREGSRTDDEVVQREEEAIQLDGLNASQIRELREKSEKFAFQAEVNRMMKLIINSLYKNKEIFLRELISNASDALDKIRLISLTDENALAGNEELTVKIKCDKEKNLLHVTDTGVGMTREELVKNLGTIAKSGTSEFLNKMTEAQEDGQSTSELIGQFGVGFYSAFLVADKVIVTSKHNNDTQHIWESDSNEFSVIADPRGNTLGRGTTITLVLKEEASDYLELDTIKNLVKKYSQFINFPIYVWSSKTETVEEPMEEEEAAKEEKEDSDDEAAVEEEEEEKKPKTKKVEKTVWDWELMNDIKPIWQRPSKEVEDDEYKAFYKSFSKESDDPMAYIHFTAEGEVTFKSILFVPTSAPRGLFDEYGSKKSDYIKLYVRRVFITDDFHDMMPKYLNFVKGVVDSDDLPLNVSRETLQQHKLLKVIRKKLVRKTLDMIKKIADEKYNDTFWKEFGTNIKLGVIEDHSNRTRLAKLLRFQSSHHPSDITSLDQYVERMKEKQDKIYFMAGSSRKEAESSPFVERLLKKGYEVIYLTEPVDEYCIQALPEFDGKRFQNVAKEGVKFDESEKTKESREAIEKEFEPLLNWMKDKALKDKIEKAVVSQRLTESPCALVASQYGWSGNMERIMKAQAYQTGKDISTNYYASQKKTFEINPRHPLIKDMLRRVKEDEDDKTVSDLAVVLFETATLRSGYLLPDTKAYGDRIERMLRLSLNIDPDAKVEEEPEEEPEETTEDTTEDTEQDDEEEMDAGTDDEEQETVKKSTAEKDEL

Legend:
Assay in all cases: pull-down; intact bacteria (OD600 of 5, washed in PBS) incubated with 5 µg/ml recombinant Gp96, 2 h, 4°C; washed 4 times with PBS; bound Gp96 detected by immunoblot with anti-Gp96; only the binder purified
[1] = biological target: native Bap protein anchored to the cell wall of intact S. aureus V329 (Staphylococcus aureus) (UniProt Q79LN3)
[2] = biological target: Bap homologous protein of S. epidermidis C533 (Staphylococcus epidermidis) (UniProt Q4ZHU1)
[3] = biological target: short Bap protein containing a single repetition (ΔrepBap) (Staphylococcus aureus) (UniProt Q79LN3)
[4] = biological target: Bap homologous protein of S. chromogenes C483 (Staphylococcus chromogenes) (UniProt Q4ZHU4)
[5] = biological target: Bap homologous protein of S. hyicus 12 (Staphylococcus hyicus) (UniProt Q4ZHU0)

Measured: binding

recombinant Gp96 protein (SPP-766 Stressgen) (from UniProt P41148 22-804)
binds: all assays above

No constants are given. Whether binding was seen depends on the method and setting. Binding seen in cells or lysates may run through a third protein. Binding calls can cover weak binding; strength is not graded here.
